Assays:
E. coli [1] = assay: Deep learning video microscopy-based antimicrobial susceptibility testing (DLVM-AST); type: cell-based, Escherichia coli (ATCC 43888); details: time needed to determine MIC; triplicate
E. coli [2] = assay: AST without DL (division feature only, cell counting from the videos); type: cell-based, Escherichia coli (ATCC 43888); details: triplicate
Procedure: To further validate the DLVM-AST method, we counted the total number of bacteria cells (Ntotal) from the videos (as shown in FIG. 9), and plotted Ntotal (mean±std) vs. time for PMB at various concentrations (as shown in FIG. 11C).
Growth and preparation of E. coli. Frozen E. coli strains were thawed, and 50 μL of which were cultured in 5 mL of Luria-Bertani (LB) medium (Per liter: 10 g peptone 140, 5 g yeast extract, and 5 g sodium chloride) at 37° C. and 150 rpm for 16 hours. Saturated cultures in the volume of 20 μL were diluted into 5 mL of fresh LB medium, and growth continued at 37° C. with 150 rpm for 1 hour to attain a logarithmic phase of growth. Bacterial cells were collected by centrifugation at 450 g for 5 min and suspended in urine to a concentration of 2×10^7 cells/mL^36. This concentration was determined by measuring the extinction coefficients for E. coli from the Optical Density (OD600) reading taken with a spectrophototometer (NanoDrop™ 2000/2000c Spectrophotometers, Thermo Scientific). The calibration factor for bacterial cell cultures estimation was 8×10^8 cells/mL per OD600 unit. Before use, the bacteria-spiked urine samples were filtered using a 5 μm syringe filter (EMD Millipore) to remove large particles.
AST with video microscopy. The microfluidic chip was placed on an inverted microscope (Olympus IX-81) with a 40× phase contrast objective lens and imaged with a CCD camera (Pike-032B, Allied Vision Technologies, Newburyport, Mass.). A 200-μL bacterial suspension (2×10^7 cells/mL) was mixed with an equal volume of antibiotic solution for each antibiotic concentration or an equal volume of water as a control experiment. These mixed solutions were injected into different microfluidic channels simultaneously. […] Videos of the bacterial cells were recorded at 100 frames per second (fps) immediately (0 min) and after every 30 min. […] To include enough cells for reliable results, we integrated bacterial cells from three videos recorded from different experiments. […]

| Compound | assay time, DLVM-AST (E. coli [1]) [h] | assay time, AST Without DL (E. coli [2]) |
| --- | --- | --- |
| CC1(C)S[C@@H]2[C@H](NC(=O)[C@H](N)c3ccccc3)C(=O)N2[C@H]1C(=O)O [Ampicillin, ampicillin] | 2.5 to 3 | 4 h |
| C[C@H]1[C@H](NC(=O)/C(=N\OC(C)(C)C(=O)O)c2csc(N)n2)C(=O)N1S(=O)(=O)O [Aztreonam, aztreonam] | 1.5 | 3 h |
| [H]/N=C(/N)N[C@H]1[C@H](O)[C@@H](O)[C@H](O[C@@H]2O[C@@H](C)[C@](O)(C=O)[C@H]2O[C@@H]2O[C@@H](CO)[C@H](O)[C@@H](O)[C@@H]2NC)[C@@H](N/C(N)=N\[H])[C@@H]1O [Streptomycin, streptomycin] | 3 | 4/4 h |
